The values that follow come from paper PMC8200294.

Sequences of proteins named here, by UniProt entry; tags and fusion partners are left off. A change or cut given only in a name is not applied to a line headed by its entry.
UniProt P19022: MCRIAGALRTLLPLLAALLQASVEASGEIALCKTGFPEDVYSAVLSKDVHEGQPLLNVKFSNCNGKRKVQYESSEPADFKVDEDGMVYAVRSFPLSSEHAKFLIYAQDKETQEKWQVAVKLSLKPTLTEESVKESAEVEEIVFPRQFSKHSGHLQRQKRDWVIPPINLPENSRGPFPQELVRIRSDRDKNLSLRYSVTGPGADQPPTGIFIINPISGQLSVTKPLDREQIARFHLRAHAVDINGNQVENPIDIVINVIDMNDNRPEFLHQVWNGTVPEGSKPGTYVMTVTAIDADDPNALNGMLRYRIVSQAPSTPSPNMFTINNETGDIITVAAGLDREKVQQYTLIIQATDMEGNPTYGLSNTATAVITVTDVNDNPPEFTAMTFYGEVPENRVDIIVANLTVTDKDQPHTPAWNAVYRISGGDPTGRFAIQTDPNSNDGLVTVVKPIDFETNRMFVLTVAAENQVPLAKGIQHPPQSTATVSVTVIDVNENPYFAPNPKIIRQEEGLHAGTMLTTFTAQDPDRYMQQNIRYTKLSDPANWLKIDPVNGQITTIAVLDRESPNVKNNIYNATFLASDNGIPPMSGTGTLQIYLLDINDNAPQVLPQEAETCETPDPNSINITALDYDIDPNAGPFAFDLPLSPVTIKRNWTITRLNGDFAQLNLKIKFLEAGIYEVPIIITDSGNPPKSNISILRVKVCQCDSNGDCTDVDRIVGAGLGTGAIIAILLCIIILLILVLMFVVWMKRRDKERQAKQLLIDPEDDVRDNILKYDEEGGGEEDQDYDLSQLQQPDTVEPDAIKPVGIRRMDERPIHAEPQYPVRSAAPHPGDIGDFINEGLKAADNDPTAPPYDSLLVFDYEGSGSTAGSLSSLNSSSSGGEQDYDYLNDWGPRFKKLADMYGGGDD
UniProt P17302: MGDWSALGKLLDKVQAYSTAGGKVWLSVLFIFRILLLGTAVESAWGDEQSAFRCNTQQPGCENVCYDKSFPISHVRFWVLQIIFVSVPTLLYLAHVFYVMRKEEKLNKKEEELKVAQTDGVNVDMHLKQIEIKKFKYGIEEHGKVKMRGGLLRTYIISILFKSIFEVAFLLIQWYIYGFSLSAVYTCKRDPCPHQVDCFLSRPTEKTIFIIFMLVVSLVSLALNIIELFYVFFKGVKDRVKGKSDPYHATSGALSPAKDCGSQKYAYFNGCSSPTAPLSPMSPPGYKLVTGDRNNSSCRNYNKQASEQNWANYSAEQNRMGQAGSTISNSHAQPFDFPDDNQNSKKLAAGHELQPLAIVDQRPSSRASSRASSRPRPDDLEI

These are yes or no findings as the source states them, for the method shown. Binding seen in cells or lysates may run through a third protein. Binding calls can cover weak binding; strength is not graded here.

The target of the assay is CDH2-Flag (from pCMV2-CDH2-Flag) (UniProt P19022). Briefly: co-IP; lysates of MDA-MB-231 transfected with pCMV2-CDH2 Flag and pcDNA 3.2-Cx43-HA; IP with anti-Flag or IgG; blot with anti-Flag or anti-HA.

Turning to “Cx43-HA (from pcDNA 3.2-Cx43-HA) (from UniProt P17302 1-382)”, the binding result was “binds”.
